Laboratory results as given in PMC6316800.

Chains of the proteins cited; added tags and fusions are not shown.
UniProt P03496: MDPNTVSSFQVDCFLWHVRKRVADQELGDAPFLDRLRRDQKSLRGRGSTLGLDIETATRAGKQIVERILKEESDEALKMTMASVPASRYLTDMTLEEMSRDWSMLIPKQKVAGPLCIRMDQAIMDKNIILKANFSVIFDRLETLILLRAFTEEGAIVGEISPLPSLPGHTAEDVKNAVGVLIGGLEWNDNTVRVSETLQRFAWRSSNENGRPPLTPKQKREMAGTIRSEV

B1: Matrin-3 (protein, UniProt P43243 1-847)
chain: MSKSFQQSSLSRDSQGHGRDLSAAGIGLLAAATQSLSMPASLGRMNQGTARLASLMNLGMSSSLNQQGAHSALSSASTSSHNLQSIFNIGSRGPLPLSSQHRGDADQASNILASFGLSARDLDELSRYPEDKITPENLPQILLQLKRRRTEEGPTLSYGRDGRSATREPPYRVPRDDWEEKRHFRRDSFDDRGPSLNPVLDYDHGSRSQESGYYDRMDYEDDRLRDGERCRDDSFFGETSHNYHKFDSEYERMGRGPGPLQERSLFEKKRGAPPSSNIEDFHGLLPKGYPHLCSICDLPVHSNKEWSQHINGASHSRRCQLLLEIYPEWNPDNDTGHTMGDPFMLQQSTNPAPGILGPPPPSFHLGGPAVGPRGNLGAGNGNLQGPRHMQKGRVETSRVVHIMDFQRGKNLRYQLLQLVEPFGVISNHLILNKINEAFIEMATTEDAQAAVDYYTTTPALVFGKPVRVHLSQKYKRIKKPEGKPDQKFDQKQELGRVIHLSNLPHSGYSDSAVLKLAEPYGKIKNYILMRMKSQAFIEMETREDAMAMVDHCLKKALWFQGRCVKVDLSEKYKKLVLRIPNRGIDLLKKDKSRKRSYSPDGKESPSDKKSKTDGSQKTESSTEGKEQEEKSGEDGEKDTKDDQTEQEPNMLLESEDELLVDEEEAAALLESGSSVGDETDLANLGDVASDGKKEPSDKAVKKDGSASAAAKKKLKKVDKIEELDQENEAALENGIKNEENTEPGAESSENADDPNKDTSENADGQSDENKDDYTIPDEYRIGPYQPNVPVGIDYVIPKTGFYCKLCSLFYTNEEVAKNTHCSSLPHYQKLKKFLNKLAEERRQKKET
B2: Myb-binding protein 1A (protein, UniProt Q9BQG0 1-1328)
chain: MESRDPAQPMSPGEATQSGARPADRYGLLKHSREFLDFFWDIAKPEQETRLAATEKLLEYLRGRPKGSEMKYALKRLITGLGVGRETARPCYSLALAQLLQSFEDLPLCSILQQIQEKYDLHQVKKAMLRPALFANLFGVLALFQSGRLVKDQEALMKSVKLLQALAQYQNHLQEQPRKALVDILSEVSKATLQEILPEVLKADLNIILSSPEQLELFLLAQQKVPSKLKKLVGSVNLFSDENVPRLVNVLKMAASSVKKDRKLPAIALDLLRLALKEDKFPRFWKEVVEQGLLKMQFWPASYLCFRLLGAALPLLTKEQLHLVMQGDVIRHYGEHVCTAKLPKQFKFAPEMDDYVGTFLEGCQDDPERQLAVLVAFSSVTNQGLPVTPTFWRVVRFLSPPALQGYVAWLRAMFLQPDLDSLVDFSTNNQKKAQDSSLHMPERAVFRLRKWIIFRLVSIVDSLHLEMEEALTEQVARFCLFHSFFVTKKPTSQIPETKHPFSFPLENQAREAVSSAFFSLLQTLSTQFKQAPGQTQGGQPWTYHLVQFADLLLNHSHNVTTVTPFTAQQRQAWDRMLQTLKELEAHSAEARAAAFQHLLLLVGIHLLKSPAESCDLLGDIQTCIRKSLGEKPRRSRTKTIDPQEPPWVEVLVEILLALLAQPSHLMRQVARSVFGHICSHLTPRALQLILDVLNPETSEDENDRVVVTDDSDERRLKGAEDKSEEGEDNRSSESEEESEGEESEEEERDGDVDQGFREQLMTVLQAGKALGGEDSENEEELGDEAMMALDQSLASLFAEQKLRIQARRDEKNKLQKEKALRRDFQIRVLDLVEVLVTKQPENALVLELLEPLLSIIRRSLRSSSSKQEQDLLHKTARIFTHHLCRARRYCHDLGERAGALHAQVERLVQQAGRQPDSPTALYHFNASLYLLRVLKGNTAEGCVHETQEKQKAGTDPSHMPTGPQAASCLDLNLVTRVYSTALSSFLTKRNSPLTVPMFLSLFSRHPVLCQSLLPILVQHITGPVRPRHQACLLLQKTLSMREVRSCFEDPEWKQLMGQVLAKVTENLRVLGEAQTKAQHQQALSSLELLNVLFRTCKHEKLTLDLTVLLGVLQGQQQSLQQGAHSTGSSRLHDLYWQAMKTLGVQRPKLEKKDAKEIPSATQSPISKKRKKKGFLPETKKRKKRKSEDGTPAEDGTPAATGGSQPPSMGRKKRNRTKAKVPAQANGTPTTKSPAPGAPTRSPSTPAKSPKLQKKNQKPSQVNGAPGSPTEPAGQKQHQKALPKKGVLGKSPLSALARKKARLSLVIRSPSLLQSGAKKKAQVRKAGKP
B3: U3 small nucleolar ribonucleoprotein protein MPP10 (protein, UniProt O00566 1-681)
chain: MAPQVWRRRTLERCLTEVGKATGRPECFLTIQEGLASKFTSLTKVLYDFNKILENGRIHGSPLQKLVIENFDDEQIWQQLELQNEPILQYFQNAVSETINDEDISLLPESEEQEREEDGSEIEADDKEDLEDLEEEEVSDMGNDDPEMGERAENSSKSDLRKSPVFSDEDSDLDFDISKLEQQSKVQNKGQGKPREKSIVDDKFFKLSEMEAYLENIEKEEERKDDNDEEEEDIDFFEDIDSDEDEGGLFGSKKLKSGKSSRNLKYKDFFDPVESDEDITNVHDDELDSNKEDDEIAEEEAEELSISETDEDDDLQENEDNKQHKESLKRVTFALPDDAETEDTGVLNVKKNSDEVKSSFEKRQEKMNEKIASLEKELLEKKPWQLQGEVTAQKRPENSLLEETLHFDHAVRMAPVITEETTLQLEDIIKQRIRDQAWDDVVRKEKPKEDAYEYKKRLTLDHEKSKLSLAEIYEQEYIKLNQQKTAEEENPEHVEIQKMMDSLFLKLDALSNFHFIPKPPVPEIKVVSNLPAITMEEVAPVSVSDAALLAPEEIKEKNKAGDIKTAAEKTATDKKRERRKKKYQKRMKIKEKEKRRKLLEKSSVDQAGKYSKTVASEKLKQLTKTGKASFIKDEGKDKALKSSQAFFSKLQDQVKMQINDAKKTEKKKKKRQDISVHKLKL
B4: Heterogeneous nuclear ribonucleoprotein R (protein, UniProt O43390 1-633)
chain: MANQVNGNAVQLKEEEEPMDTSSVTHTEHYKTLIEAGLPQKVAERLDEIFQTGLVAYVDLDERAIDALREFNEEGALSVLQQFKESDLSHVQNKSAFLCGVMKTYRQREKQGSKVQESTKGPDEAKIKALLERTGYTLDVTTGQRKYGGPPPDSVYSGVQPGIGTEVFVGKIPRDLYEDELVPLFEKAGPIWDLRLMMDPLSGQNRGYAFITFCGKEAAQEAVKLCDSYEIRPGKHLGVCISVANNRLFVGSIPKNKTKENILEEFSKVTEGLVDVILYHQPDDKKKNRGFCFLEYEDHKSAAQARRRLMSGKVKVWGNVVTVEWADPVEEPDPEVMAKVKVLFVRNLATTVTEEILEKSFSEFGKLERVKKLKDYAFVHFEDRGAAVKAMDEMNGKEIEGEEIEIVLAKPPDKKRKERQAARQASRSTAYEDYYYHPPPRMPPPIRGRGRGGGRGGYGYPPDYYGYEDYYDDYYGYDYHDYRGGYEDPYYGYDDGYAVRGRGGGRGGRGAPPPPRGRGAPPPRGRAGYSQRGAPLGPPRGSRGGRGGPAQQQRGRGSRGSRGNRGGNVGGKRKADGYNQPDSKRRQTNNQQNWGSQPIAQQPLQQGGDYSGNYGYNNDNQEFYQDTYGQQWK
B5: Ribosome biogenesis protein BRX1 homolog (protein, UniProt Q8TDN6 1-353)
chain: MAATKRKRRGGFAVQAKKPKRNEIDAEPPAKRHATAEEVEEEERDRIPGPVCKGKWKNKERILIFSSRGINFRTRHLMQDLRMLMPHSKADTKMDRKDKLFVINEVCEMKNCNKCIYFEAKKKQDLYMWLSNSPHGPSAKFLVQNIHTLAELKMTGNCLKGSRPLLSFDPAFDELPHYALLKELLIQIFSTPRYHPKSQPFVDHVFTFTILDNRIWFRNFQIIEEDAALVEIGPRFVLNLIKIFQGSFGGPTLYENPHYQSPNMHRRVIRSITAAKYREKQQVKDVQKLRKKEPKTLLPHDPTADVFVTPAEEKPIEIQWVKPEPKVDLKARKKRIYKRQRKMKQRMDSGKTK
B6: UPF0568 protein C14orf166 (protein, UniProt Q9Y224 1-244)
chain: MFRRKLTALDYHNPAGFNCKDETEFRNFIVWLEDQKIRHYKIEDRGNLRNIHSSDWPKFFEKYLRDVNCPFKIQDRQEAIDWLLGLAVRLEYGDNAEKYKDLVPDNSKTADNATKNAEPLINLDVNNPDFKAGVMALANLLQIQRHDDYLVMLKAIRILVQERLTQDAVAKANQTKEGLPVALDKHILGFDTGDAVLNEAAQILRLLHIEELRELQTKINEAIVAVQAIIADPKTDHRLGKVGR
B7: 60S ribosome subunit biogenesis protein NIP7 homolog (protein, UniProt Q9Y221 1-180)
chain: MRPLTEEETRVMFEKIAKYIGENLQLLVDRPDGTYCFRLHNDRVYYVSEKIMKLAANISGDKLVSLGTCFGKFTKTHKFRLHVTALDYLAPYAKYKVWIKPGAEQSFLYGNHVLKSGLGRITENTSQYQGVVVYSMADIPLGFGVAAKSTQDCRKVDPMAIVVFHQADIGEYVRHEETLT
B8: Serine beta-lactamase-like protein LACTB, mitochondrial (protein, UniProt P83111 116-547)
chain: HRIKDEVGAPGIVVGVSVDGKEVWSEGLGYADVENRVPCKPETVMRIASISKSLTMVALAKLWEAGKLDLDIPVQHYVPEFPEKEYEGEKVSVTTRLLISHLSGIRHYEKDIKKVKEEKAYKALKMMKENVAFEQEKEGKSNEKNDFTKFKTEQENEAKCRNSKPGKKKNDFEQGELYLREKFENSIESLRLFKNDPLFFKPGSQFLYSTFGYTLLAAIVERASGCKYLDYMQKIFHDLDMLTTVQEENEPVIYNRARFYVYNKKKRLVNTPYVDNSYKWAGGGFLSTVGDLLKFGNAMLYGYQVGLFKNSNENLLPGYLKPETMVMMWTPVPNTEMSWDKEGKYAMAWGVVERKQTYGSCRKQRHYASHTGGAVGASSVLLVLPEELDTETINNKVPPRGIIVSIICNMQSVGLNSTALKIALEFDKDRSD
B9: NF-kappa-B-repressing factor (protein, UniProt O15226 1-690)
chain: MEKILQMAEGIDIGEMPSYDLVLSKPSKGQKRHLSTCDGQNPPKKQAGSKFHARPRFEPVHFVASSSKDERQEDPYGPQTKEVNEQTHFASMPRDIYQDYTQDSFSIQDGNSQYCDSSGFILTKDQPVTANMYFDSGNPAPSTTSQQANSQSTPEPSPSQTFPESVVAEKQYFIEKLTATIWKNLSNPEMTSGSDKINYTYMLTRCIQACKTNPEYIYAPLKEIPPADIPKNKKLLTDGYACEVRCQNIYLTTGYAGSKNGSRDRATELAVKLLQKRIEVRVVRRKFKHTFGEDLVVCQIGMSSYEFPPALKPPEDLVVLGKDASGQPIFNASAKHWTNFVITENANDAIGILNNSASFNKMSIEYKYEMMPNRTWRCRVFLQDHCLAEGYGTKKTSKHAAADEALKILQKTQPTYPSVKSSQCHTGSSPRGSGKKKDIKDLVVYENSSNPVCTLNDTAQFNRMTVEYVYERMTGLRWKCKVILESEVIAEAVGVKKTVKYEAAGEAVKTLKKTQPTVINNLKKGAVEDVISRNEIQGRSAEEAYKQQIKEDNIGNQLLRKMGWTGGGLGKSGEGIREPISVKEQHKREGLGLDVERVNKIAKRDIEQIIRNYARSESHTDLTFSRELTNDERKQIHQIAQKYGLKSKSHGVGHDRYLVVGRKRRKEDLLDQLKQEGQVGHYELVMPQAN
B10: U3 small nucleolar ribonucleoprotein protein IMP4 (protein, UniProt Q96G21 1-291)
chain: MLRREARLRREYLYRKAREEAQRSAQERKERLRRALEENRLIPTELRREALALQGSLEFDDAGGEGVTSHVDDEYRWAGVEDPKVMITTSRDPSSRLKMFAKELKLVFPGAQRMNRGRHEVGALVRACKANGVTDLLVVHEHRGTPVGLIVSHLPFGPTAYFTLCNVVMRHDIPDLGTMSEAKPHLITHGFSSRLGKRVSDILRYLFPVPKDDSHRVITFANQDDYISFRHHVYKKTDHRNVELTEVGPRFELKLYMIRLGTLEQEATADVEWRWHPYTNTARKRVFLSTE

Biological target: Influenza A virus non-structural protein 1 (NS1), strain A/Puerto Rico/8/1934(H1N1) (Influenza A virus A/Puerto Rico/8/1934(H1N1)) (UniProt P03496)
Test: affinity purification with mass spectrometry

Row | Binder | binding
1 | B1 | binds
2 | B2 | binds
3 | B3 | binds
4 | B4 | binds
5 | B5 | binds
6 | B6 | binds
7 | B7 | binds
8 | B8 | binds
9 | B9 | binds
10 | B10 | binds

These are yes or no findings as the source states them, for the method shown. In cells and extracts the contact can be indirect. A yes stands for co-enrichment or nearness to the bait. Other partners may have been found.
